PubChem BioAssay AID1508588, Peter MacCallum Cancer Centre – 2020
The deposit covers about 18,000 reagents; below is a part drawn at random. Over the whole deposit, 790 (4.4%) are marked active. 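Calls rest on a combination of fold-change classes in drug and vehicle arms, not all shown here.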

Purpose: 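Which gene losses make BRAF-mutant melanoma cells more responsive to vemurafenib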 (primary screen)
Cells: human WM266.4 melanoma cells (BRAF V600 mutant)
Reagent: siRNA pool against human genes, 40 nM
Time to read-out: 96 h from transfection to read-out
Challenge: vemurafenib 300 nM (about IC25), added 48 h after transfection, for 48 h; comparison arm got DMSO vehicle only
Read-out: 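Cell gain (DAPI nuclei at end minus before drug, mean of two replicates) and medium lactate by absorbance per cell, both as ratio to non-targeting siRNA, also grouped into fold-change classes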
Reading the numbers: cell gain with vemurafenib: higher = more cell gain than with non-targeting siRNA; lactate per cell with vemurafenib: higher = more lactate made per cell
Rule for the call: 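Enhancement is called by pairing each knock-down's vehicle-arm and drug-arm fold-change classes for viability or glycolysis; which class combinations qualify is not given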
Meaning of the calls: active = enhances vemurafenib effect; inactive = no enhancement seen

FOXA1 showed cell gain with vemurafenib 0.03; lactate per cell with vemurafenib 2.69; inactive.
With knock-down of KATNAL2, the screen gave cell gain with vemurafenib 1.17; lactate per cell with vemurafenib 0.65; inactive.
With knock-down of RAET1E, the record shows cell gain with vemurafenib 0.61; lactate per cell with vemurafenib 0.28; inactive.
Against RASA3 the deposit lists cell gain with vemurafenib 1.23; lactate per cell with vemurafenib 0.9; inactive.
CDKN2A gave cell gain with vemurafenib 0.36; lactate per cell with vemurafenib 1.65; inactive.
CRCT1 gave cell gain with vemurafenib 0.34; lactate per cell with vemurafenib 0.96; inactive.
For RTL8C the deposit lists cell gain with vemurafenib 0.57; lactate per cell with vemurafenib 0.8; inactive.
For CFAP77 the deposit lists cell gain with vemurafenib 0.67; lactate per cell with vemurafenib 0.6; inactive.
Knock-down of RAB6B came out at: cell gain with vemurafenib 0.44; lactate per cell with vemurafenib 1.44; inactive.
After knock-down of ZBTB14, the screen gave cell gain with vemurafenib 0.92; lactate per cell with vemurafenib 0.84; inactive.
Depletion of MRPL55 gave: cell gain with vemurafenib 0.61; lactate per cell with vemurafenib 1.29; inactive.
DNAJC22 gave cell gain with vemurafenib 0.82; lactate per cell with vemurafenib 0.5; inactive.
Against WDTC1 the deposit lists cell gain with vemurafenib 0.54; lactate per cell with vemurafenib 1.66; inactive.
WFDC12 scored cell gain with vemurafenib 0.45; lactate per cell with vemurafenib 1.1; inactive.
ZNF135 gave cell gain with vemurafenib 1.2; lactate per cell with vemurafenib 0.72; inactive.
After knock-down of OR6C2 the results were cell gain with vemurafenib 0.35; lactate per cell with vemurafenib 1.14; inactive.
Silencing of FETUB came out at: cell gain with vemurafenib 0.6; lactate per cell with vemurafenib 1.23; inactive.
Knock-down of NEMP1 came out at: cell gain with vemurafenib 0.46; lactate per cell with vemurafenib 1.14; inactive.
Depletion of RETNLB gave: cell gain with vemurafenib 0.2; lactate per cell with vemurafenib 1.25; inactive.
Silencing of HHIP resulted in: cell gain with vemurafenib 0.19; lactate per cell with vemurafenib 1.72; inactive.
With knock-down of TUBD1, the record shows cell gain with vemurafenib 0.44; lactate per cell with vemurafenib 0.78; inactive.
Against WNT10A, the values are cell gain with vemurafenib 0.29; lactate per cell with vemurafenib 0.36; inactive.
With knock-down of DRP2 the results were cell gain with vemurafenib 0.97; lactate per cell with vemurafenib 0.86; inactive.
With knock-down of DOK1 the results were cell gain with vemurafenib 0.45; lactate per cell with vemurafenib 2.23; inactive.
Knock-down of MTUS2 resulted in: cell gain with vemurafenib 0.38; lactate per cell with vemurafenib 1.54; inactive.
With knock-down of UGT2B11 the results were cell gain with vemurafenib 0.54; lactate per cell with vemurafenib 1.38; inactive.
CCT3 gave cell gain with vemurafenib 0.59; lactate per cell with vemurafenib 1.22; inactive.

Part of the list above, set out differently:
{"target gene":"NEMP1","cell gain with vemurafenib":0.46,"lactate per cell with vemurafenib":1.14,"Call":"inactive"}
{"target gene":"RETNLB","cell gain with vemurafenib":0.2,"lactate per cell with vemurafenib":1.25,"Call":"inactive"}
{"target gene":"HHIP","cell gain with vemurafenib":0.19,"lactate per cell with vemurafenib":1.72,"Call":"inactive"}
